The values that follow come from PMC4488268.

Results are given in words; binding and its absence hold for the method and conditions named. Some results given as binding are weak or reduced against the parent protein; the word gives no strength. Where a sequence is shown, tags or fusion partners need not be part of it.

The assay concerns the target full-length NLRP7, Flag-tagged (human) (UniProt Q8WX94). Kind of assay: native gel or EMSA; Blue Native PAGE (Bis-Tris NativePAGE) of digitonin (1%-2.5%) lysates of HEK293T cells co-transfected with Flag-NLRP7 and ZBTB16-Myc; second dimension SDS-PAGE; blots with anti-Flag and anti-Myc. (Mobility shift assays separate free from complexed probe on a gel.)

B1: full-length NLRP7, Flag-tagged (protein, UniProt Q8WX94 1-980)
chain: MTSPQLEWTLQTLLEQLNEDELKSFKSLLWAFPLEDVLQKTPWSEVEEADGKKLAEILVNTSSENWIRNATVNILEEMNLTELCKMAKAEMMEDGQVQEIDNPELGDAEEDSELAKPGEKEGWRNSMEKQSLVWKNTFWQGDIDNFHDDVTLRNQRFIPFLNPRTPRKLTPYTVVLHGPAGVGKTTLAKKCMLDWTDCNLSPTLRYAFYLSCKELSRMGPCSFAELISKDWPELQDDIPSILAQAQRILFVVDGLDELKVPPGALIQDICGDWEKKKPVPVLLGSLLKRKMLPRAALLVTTRPRALRDLQLLAQQPIYVRVEGFLEEDRRAYFLRHFGDEDQAMRAFELMRSNAALFQLGSAPAVCWIVCTTLKLQMEKGEDPVPTCLTRTGLFLRFLCSRFPQGAQLRGALRTLSLLAAQGLWAQMSVFHREDLERLGVQESDLRLFLDGDILRQDRVSKGCYSFIHLSFQQFLTALFYALEKEEGEDRDGHAWDIGDVQKLLSGEERLKNPDLIQVGHFLFGLANEKRAKELEATFGCRMSPDIKQELLQCKAHLHANKPLSVTDLKEVLGCLYESQEEELAKVVVAPFKEISIHLTNTSEVMHCSFSLKHCQDLQKLSLQVAKGVFLENYMDFELDIEFERCTYLTIPNWARQDLRSLRLWTDFCSLFSSNSNLKFLEVKQSFLSDSSVRILCDHVTRSTCHLQKVEIKNVTPDTAYRDFCLAFIGKKTLTHLTLAGHIEWERTMMLMLCDLLRNHKCNLQYLRLGGHCATPEQWAEFFYVLKANQSLKHLRLSANVLLDEGAMLLYKTMTRPKHFLQMLSLENCRLTEASCKDLAAVLVVSKKLTHLCLAKNPIGDTGVKFLCEGLSYPDCKLQTLVLQQCSITKLGCRYLSEALQEACSLTNLDLSINQIARGLWILCQALENPNCNLKHLRLKTYETNLEIKKLLEEVKEKNPKLTIDCNASGATAPPCCDFFC
On to B1, for which the binding entry is on record as “binds”.
